These results are taken from publication PMC8189435, “Timer-based proteomic profiling of the ubiquitin-proteasome system reveals a substrate receptor of the GID ubiquitin ligase” (Molecular Cell, 2021).

These are yes or no findings as the source states them, for the method shown. Binding seen in cells or lysates may run through a third protein. Some entries that bind do so weakly or less than the wild type. Sequences can lack the tags named with a protein.

This test addresses T1, Gid1-tFT (chromosomally tagged Gid1-mCherry-sfGFP) (S. cerevisiae) (UniProt P53076).
T1 sequence: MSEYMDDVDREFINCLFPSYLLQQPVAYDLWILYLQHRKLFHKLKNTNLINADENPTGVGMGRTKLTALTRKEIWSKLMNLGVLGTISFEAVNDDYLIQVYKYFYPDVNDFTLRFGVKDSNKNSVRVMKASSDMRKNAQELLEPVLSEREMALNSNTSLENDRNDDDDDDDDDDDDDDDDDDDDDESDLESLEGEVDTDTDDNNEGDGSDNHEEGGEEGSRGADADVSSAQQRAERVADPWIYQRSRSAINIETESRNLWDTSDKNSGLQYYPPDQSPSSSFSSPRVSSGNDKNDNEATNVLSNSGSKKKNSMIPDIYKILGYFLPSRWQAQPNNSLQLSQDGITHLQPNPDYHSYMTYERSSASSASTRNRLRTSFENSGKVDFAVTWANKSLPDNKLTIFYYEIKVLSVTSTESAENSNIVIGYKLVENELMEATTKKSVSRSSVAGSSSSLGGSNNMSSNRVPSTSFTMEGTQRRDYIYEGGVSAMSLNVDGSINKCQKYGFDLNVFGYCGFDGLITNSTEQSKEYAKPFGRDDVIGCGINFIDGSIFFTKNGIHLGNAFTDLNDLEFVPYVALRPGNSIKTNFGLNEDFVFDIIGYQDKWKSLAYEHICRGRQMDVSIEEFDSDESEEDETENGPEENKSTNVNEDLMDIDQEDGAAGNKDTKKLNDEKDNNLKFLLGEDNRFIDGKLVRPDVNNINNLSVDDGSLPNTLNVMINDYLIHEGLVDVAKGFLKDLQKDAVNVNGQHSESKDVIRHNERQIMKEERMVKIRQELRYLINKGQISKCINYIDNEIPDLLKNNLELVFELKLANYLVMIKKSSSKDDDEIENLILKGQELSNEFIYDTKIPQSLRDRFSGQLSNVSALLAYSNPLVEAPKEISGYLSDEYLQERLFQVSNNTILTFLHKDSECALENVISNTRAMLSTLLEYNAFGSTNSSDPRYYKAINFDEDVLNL
Nature of the test: co-IP; tFT-tagged bait precipitated with rabbit anti-GFP on Dynabeads from yeast lysates (log phase, SC medium lacking histidine, 2% glucose); IP buffer 50 mM Tris-HCl pH 7.5, 100 mM NaCl, 1% Triton X-100, 2 mM EDTA; 2 h at 4°C; HA-tagged prey detected by anti-HA blot; WT or gid5Δ cells.

B1: HA-Gid11 (Ylr149c/Gid11) (natural protein, S. cerevisiae, UniProt Q99296 1-730, looked up)
chain: MTIDGTGQSKEALQDERLNTGSDKVYQNYMMPALELYDAKVSINHWQLRDCIKPGSMNQSKLYYIYDHSIRVLDTDSSVLRSPVRRHNSIQPSNSGKNSTEKTSTKGSRTTGSYISKNLHVPSEKLVEFNFKPRCFTELNGLTVCGGLIGSDDKGFPSNWNRLAQDANISLPPPSQPINISKNISFPINSHYSNPNIWKGIVEFYNQETDTMMTFTLGQFINNCVTLYDRASMQFDLFACNNDGHLYQCDVSNRDVTLVKRYADLKFPLNNASLSHDGQTMVVSGDSNKFAVYNQNELTNQFSLHYDNHPSWGSSVNRVRRIPRFALPDESEYIENIYEAPNSDHGFYNSFSENDLQFATVFQNGTCAIYDIRNMATPMAEISSTRPHSHNGAFRVCRFSYGLDDLLFISEHQGRVHVVDTRNYVNHQVIVIPDKVNMEYINERKHNTNHNFTTNNNNENESNDSKNELQGADYRSLSRRRFSLPSMPNVTTEPWITMAQRIPKKYLEPQILPFPKVMDKISNESVLFSTKGSSSSDVAHPYKRRCSFRVRRVSTSAPTADYSNNNVNASLGTPAADSIATSSSNSAPQNLIDPLILSHQQASNDVFEDDEYYEAYNDVHSTYRVSSDYHGVSARAFESFLRPPSTPDLPSDDDNFAANSRNNRGTSNFLRRPVITTQESNEFSEENNISGIDWVEDRNGSSLIIGTDYGIMRWNINSWARRSFSSYDLC
notes: Gid11 (Ylr149c), S. cerevisiae, WD40/YVTN repeat-like domain protein; the last 4 residues are printed as 727-730, so the protein ends at residue 730; also called HA-YLR149C; source: S. cerevisiae, overexpressed from plasmid pRS413-GPDpr-HA-YLR149C, in lysate; not shown: HA, N-terminal, kept
Take B1: the binding entry is reported as “binds”.

B2: HA-Luc-Gid11^C20 (last 20 residues of Gid11 fused to luciferase) (domain or fragment, UniProt Q99296 711-730)
chain: IMRWNINSWARRSFSSYDLC
Regarding B2, the binding entry is “binds”.
